These are yes or no findings as the source states them, for the method shown. Binding seen in cells or lysates may run through a third protein. Some results given as binding are weak or reduced against the parent protein; the word gives no strength. For some assays here: Tags and fused reporters may be left off the sequences shown. Each block holds one binder with its values, some of them ahead of it.
Legend:
[1] = molecular target: endogenous E2F4 (38HK) (human (endogenous in 38HK)), Q16254; test: co-IP; conditions: remark: other sources report otherwise
[2] = molecular target: endogenous E2F4 (38HK) (human (endogenous in 38HK)) (UniProt Q16254); test: co-IP

The chains behind the UniProt entries cited, without tags or fusion partners. Where a name states a change or a piece, a line headed by the entry shows the natural chain unless it says otherwise.
UniProt Q16254, whole entry: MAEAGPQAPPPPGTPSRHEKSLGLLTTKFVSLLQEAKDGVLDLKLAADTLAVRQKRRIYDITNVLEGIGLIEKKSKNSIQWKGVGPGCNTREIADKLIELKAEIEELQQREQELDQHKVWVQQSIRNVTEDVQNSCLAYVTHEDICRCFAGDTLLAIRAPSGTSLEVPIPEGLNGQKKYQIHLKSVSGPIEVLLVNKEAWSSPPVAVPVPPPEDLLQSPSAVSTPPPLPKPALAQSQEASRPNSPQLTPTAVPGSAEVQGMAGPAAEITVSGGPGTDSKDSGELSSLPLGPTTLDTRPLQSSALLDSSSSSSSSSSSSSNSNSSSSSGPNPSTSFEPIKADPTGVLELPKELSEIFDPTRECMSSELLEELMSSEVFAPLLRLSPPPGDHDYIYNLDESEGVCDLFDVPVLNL

binding [1]: binds
B1: endogenous retinoblastoma-like 2 (RBL2/p130) (38HK), Q08999 1-1139 (protein)
chain: MPSGGDQSPPPPPPPPAAAASDEEEEDDGEAEDAAPPAESPTPQIQQRFDELCSRLNMDEAARAEAWDSYRSMSESYTLEGNDLHWLACALYVACRKSVPTVSKGTVEGNYVSLTRILKCSEQSLIEFFNKMKKWEDMANLPPHFRERTERLERNFTVSAVIFKKYEPIFQDIFKYPQEEQPRQQRGRKQRRQPCTVSEIFHFCWVLFIYAKGNFPMISDDLVNSYHLLLCALDLVYGNALQCSNRKELVNPNFKGLSEDFHAKDSKPSSDPPCIIEKLCSLHDGLVLEAKGIKEHFWKPYIRKLYEKKLLKGKEENLTGFLEPGNFGESFKAINKAYEEYVLSVGNLDERIFLGEDAEEEIGTLSRCLNAGSGTETAERVQMKNILQQHFDKSKALRISTPLTGVRYIKENSPCVTPVSTATHSLSRLHTMLTGLRNAPSEKLEQILRTCSRDPTQAIANRLKEMFEIYSQHFQPDEDFSNCAKEIASKHFRFAEMLYYKVLESVIEQEQKRLGDMDLSGILEQDAFHRSLLACCLEVVTFSYKPPGNFPFITEIFDVPLYHFYKVIEVFIRAEDGLCREVVKHLNQIEEQILDHLAWKPESPLWEKIRDNENRVPTCEEVMPPQNLERADEICIAGSPLTPRRVTEVRADTGGLGRSITSPTTLYDRYSSPPASTTRRRLFVENDSPSDGGTPGRMPPQPLVNAVPVQNVSGETVSVTPVPGQTLVTMATATVTANNGQTVTIPVQGIANENGGITFFPVQVNVGGQAQAVTGSIQPLSAQALAGSLSSQQVTGTTLQVPGQVAIQQISPGGQQQKQGQSVTSSSNRPRKTSSLSLFFRKVYHLAAVRLRDLCAKLDISDELRKKIWTCFEFSIIQCPELMMDRHLDQLLMCAIYVMAKVTKEDKSFQNIMRCYRTQPQARSQVYRSVLIKGKRKRRNSGSSDSRSHQNSPTELNKDRTSRDSSPVMRSSSTLPVPQPSSAPPTPTRLTGANSDMEEEERGDLIQFYNNIYIKQIKTFAMKYSQANMDAPPLSPYPFVRTGSPRRIQLSQNHPVYISPHKNETMLSPREKIFYYFSNSPSKRLREINSMIRTGETPTKKRGILLEDGSESPAKRICPENHSALLRRLQDVANDRGSH

binding [2]: binds
B2: HA-ΔNp73α (protein, UniProt O15350-8 1-587)
chain: MLYVGDPARHLATAQFNLLSSTMDQMSSRAASASPYTPEHAASVPTHSPYAQPSSTFDTMSPAPVIPSNTDYPGPHHFEVTFQQSSTAKSATWTYSPLLKKLYCQIAKTCPIQIKVSTPPPPGTAIRAMPVYKKAEHVTDVVKRCPNHELGRDFNEGQSAPASHLIRVEGNNLSQYVDDPVTGRQSVVVPYEPPQVGTEFTTILYNFMCNSSCVGGMNRRPILIIITLEMRDGQVLGRRSFEGRICACPGRDRKADEDHYREQQALNESSAKNGAASKRAFKQSPPAVPALGAGVKKRRHGDEDTYYLQVRGRENFEILMKLKESLELMELVPQPLVDSYRQQQQLLQRPSHLQPPSYGPVLSPMNKVHGGMNKLPSVNQLVGQPPPHSSAATPNLGPVGPGMLNNHGHAVPANGEMSSSHSAQSMVSGSHCTPPPPYHADPSLVSFLTGLGCPNCIEYFTSQGLQSIYHLQNLTIEDLGALKIPEQYRMTIWRGLQDLKQGHDYSTAQQLLRSSNAATISIGGSGELQRQRVMEAVHFRVRHTITIPNRGGPGGGPDEWADFGFDLPDCKARKQPIKEEFTEAEIH

Reference: article doi:10.1101/2022.10.27.514150
